According to PubChem BioAssay AID330 (DTP/NCI, 2004):
The list does not hold the whole screen: it gathers tests that were run many times, whatever their T/C, doses with no T/C, and many T/C values between a quarter and a half above the control. Further doses and runs are listed elsewhere. T/C: endpoint of the treated group in % of that of the vehicle group. Some doses have a count of surviving animals in place of a T/C: the source holds a T/C of zero for them, seemingly a mark for toxic or unscored doses. Some survivor counts are full or nearly so, which does not show that the dose was tolerated: survival well below the control is almost never listed, so the zero probably covers shortened survival too. Counts of survivors are from the toxicity check (mostly the fifth day) where no day follows; animals may have died later. Schedules are NCI's codes, taken here to give the interval after Q, in days (D) or hours (H), and the number of doses after X. Some entries were tested several times; their values stand side by side, smallest first. Where survival is the endpoint, the PubChem record calls one and a half times the control and up active, and a quarter to a half above the control has no call in these data; cut-offs in other NCI protocols can differ. Some T/C values are followed by the survivors on the day toxicity was checked, most often the fifth; without a count, all were alive then.

Tested on: P388 leukemia ip, CD2F1 mice, survival T/C
Assay: NCI In Vivo Anticancer Drug Screen. Data for tumor model P388 Leukemia (intraperitoneal) in CD2F1 (CDF1) mice
Conditions: T/C endpoint: median survival time, higher T/C = longer survival
[1] = dose: 100.0 mg/kg/injection, schedule: Q04DX003 (ip), vehicle: saline with Tween-80
[2] = dose: 200.0 mg/kg/injection, schedule: Q04DX003 (ip), vehicle: saline
[3] = dose: 50.0 mg/kg/injection, schedule: Q01DX005 (ip), vehicle: Klucel (hydroxypropylcellulose) (HPC)
[4] = dose: 100.0 mg/kg/injection, schedule: Q01DX005 (ip), vehicle: Klucel (hydroxypropylcellulose) (HPC)
[5] = dose: 200.0 mg/kg/injection, schedule: Q01DX005 (ip), vehicle: Klucel (hydroxypropylcellulose) (HPC)
[6] = dose: 200.0 mg/kg/injection, schedule: Q01DX005 (ip), vehicle: saline with Tween-80
[7] = dose: 50.0 mg/kg/injection, schedule: Q01DX009 (ip), vehicle: Klucel (hydroxypropylcellulose) (HPC)
[8] = dose: 200.0 mg/kg/injection, schedule: Q01DX009 (ip), vehicle: Klucel (hydroxypropylcellulose) (HPC)
[9] = dose: 25.0 mg/kg/injection, schedule: Q01DX005 (ip), vehicle: Klucel (hydroxypropylcellulose) (HPC)
[10] = dose: 100.0 mg/kg/injection, schedule: Q01DX009 (ip), vehicle: saline
[11] = dose: 200.0 mg/kg/injection, schedule: Q01DX009 (ip), vehicle: saline
[12] = dose: 100.0 mg/kg/injection, schedule: Q01DX005 (ip), vehicle: saline with Tween-80
[13] = dose: 50.0 mg/kg/injection, schedule: Q01DX009 (ip), vehicle: saline with Tween-80
[14] = dose: 100.0 mg/kg/injection, schedule: Q01DX009 (ip), vehicle: saline with Tween-80
[15] = dose: 25.0 mg/kg/injection, schedule: Q01DX009 (ip), vehicle: saline
[16] = dose: 50.0 mg/kg/injection, schedule: Q01DX009 (ip), vehicle: saline

With CN(C)c1ccc(Nc2c3ccccc3nc3ccccc23)cc1 as the compound, how does the T/C (dose: 12.5 mg/kg/injection, schedule: Q04DX002 (ip), vehicle: distilled water + Tween-80) read?
The T/C was 125 % of control.

And the T/C (dose: 43.2 mg/kg/injection, schedule: Q04DX003 (ip), vehicle: saline)?
The T/C was 130 % of control.

And the T/C (dose: 60.0 mg/kg/injection, schedule: Q04DX003 (ip), vehicle: saline with Tween-80)?
The T/C was 128 and 144 % of control.

And the T/C (dose: 72.0 mg/kg/injection, schedule: Q04DX003 (ip), vehicle: saline)?
The T/C was 144 % of control.

What about the survivor count (dose: 100.0 mg/kg/injection, schedule: Q04DX002 (ip), vehicle: distilled water + Tween-80) of the same compound?
The survivor count was 0 of 6 and 3 of 6.

What about the T/C [1] of the same compound?
The T/C was 136 % of control.

And the survivor count (dose: 200.0 mg/kg/injection, schedule: Q04DX002 (ip), vehicle: distilled water + Tween-80)?
The survivor count was 2 of 6.

And the survivor count [2]?
Its survivor count is 1 of 8.

And the survivor count (dose: 400.0 mg/kg/injection, schedule: Q04DX002 (ip), vehicle: distilled water + Tween-80)?
The survivor count was 0 of 6.

For N#Cc1ccoc1, which survivor count [3] is on record?
Its survivor count is 3 of 6.

And the survivor count [4]?
Its survivor count is 5 of 6.

And the survivor count [5]?
Its survivor count is 0 of 6.

With O=C1c2cccc3cccc(c23)C(=O)N1CCc1ccccn1 as the compound, how does the survivor count [6] read?
Its survivor count is 4 of 6.

Which survivor count (dose: 400.0 mg/kg/injection, schedule: Q04DX003 (ip), vehicle: saline with Tween-80) does the source give for COc1ccc(OC)c(C(/C=N/O)OC)c1 (stereo not drawn) here?
Its survivor count is 6 of 6.

Which survivor count (dose: 25.0 mg/kg/injection, schedule: Q01DX009 (ip), vehicle: Klucel (hydroxypropylcellulose) (HPC)) does the source give for O=C(c1ccc2cc(Cl)c(Cl)cc2c1)C(Cl)Cl here?
The survivor count was 6 of 6.

What about the survivor count [7] of the same compound?
The survivor count was 0 of 6.

How did the survivor count [8] turn out when COc1ccc2nc3cc(Cl)ccc3c(NCCCCCCNc3c4ccc(Cl)cc4nc4ccc(OC)nc34)c2n1 was run?
The survivor count was 4 of 6.

What does the source list for CCn1c(Cl)c(/C=N\Nc2cccc([N+](=O)[O-])c2)c2ccccc21?
survivor count (dose: 200.0 mg/kg/injection, schedule: Q01DX001 (ip), vehicle: Klucel (hydroxypropylcellulose) (HPC)): 6 of 6; survivor count (dose: 400.0 mg/kg/injection, schedule: Q01DX001 (ip), vehicle: Klucel (hydroxypropylcellulose) (HPC)): 6 of 6

How did the T/C (dose: 1.56 mg/kg/injection, schedule: Q01DX005 (ip), vehicle: Klucel (hydroxypropylcellulose) (HPC)) turn out when CN=C(NC)c1ccc(NC(=O)/C=C\c2ccc(/C=C/C(=O)Nc3ccc(C(=NC)NC)cc3)cc2)cc1 was run?
Its T/C is 134 and 136 % of control.

And the T/C (dose: 3.12 mg/kg/injection, schedule: Q01DX005 (ip), vehicle: Klucel (hydroxypropylcellulose) (HPC))?
The T/C was 125, 137, 144 % of control.

What about the T/C (dose: 6.25 mg/kg/injection, schedule: Q01DX005 (ip), vehicle: Klucel (hydroxypropylcellulose) (HPC)) of the same compound?
The T/C was 123, 140, 151, 163 % of control.

What about the T/C (dose: 12.5 mg/kg/injection, schedule: Q01DX005 (ip), vehicle: Klucel (hydroxypropylcellulose) (HPC)) of the same compound?
Its T/C is 157 [4 of 6 alive], 161, 191, 207 % of control.

What about the T/C [9] of the same compound?
The T/C was 105 [8 of 10 alive] and 236 % of control [4 of 5 alive].

And the survivor count [9]?
Its survivor count is 0 of 6.

And the survivor count [3]?
Its survivor count is 0 of 6.

What about the survivor count [4] of the same compound?
Its survivor count is 0 of 6.

And the survivor count [5]?
Its survivor count is 0 of 6.

Which survivor count [7] does the source give for N#CC(O)COc1nsnc1N1CCOCC1 (stereo not drawn) here?
The survivor count was 2 of 6.

What about the survivor count (dose: 100.0 mg/kg/injection, schedule: Q01DX009 (ip), vehicle: Klucel (hydroxypropylcellulose) (HPC)) of the same compound?
Its survivor count is 0 of 6.

And the survivor count [8]?
Its survivor count is 0 of 6.

Which survivor count [10] does the source give for C[N+]1=P(C)(C)N=P(C)(C)[N+](C)=P(C)(C)N=P1(C)C here?
Its survivor count is 4 of 6.

And the survivor count [11]?
Its survivor count is 0 of 6.

For CCCCCCCCCCC[N+]1([O-])CCOCC1, which survivor count [10] is on record?
The survivor count was 5 of 6.

What about the survivor count [11] of the same compound?
The survivor count was 0 of 6.

Which survivor count (dose: 100.0 mg/kg/injection, schedule: Q04DX003 (ip), vehicle: saline) does the source give for C[O][Sn]([CH3])([CH3])[O][Sn]([CH3])([CH3])[Cl] here?
Its survivor count is 0 of 6.

What about the survivor count [2] of the same compound?
The survivor count was 0 of 6.

And the survivor count (dose: 400.0 mg/kg/injection, schedule: Q04DX003 (ip), vehicle: saline)?
Its survivor count is 0 of 6.

How did the survivor count [12] turn out when CC(=O)OC[C@@]1(C)[C@@H]2CC[C@]3(C)[C@H](C(=O)C=C4[C@@H]5CC(C)(C)CC[C@]5(C(=O)O)CC[C@]43C)[C@@]2(C)CC[C@@H]1OC(C)=O was run?
The survivor count was 6 of 6.

What about the survivor count [6] of the same compound?
The survivor count was 6 of 6.

COc1ccc2c(c1)CC(=CO)CC2=O.COc1ccc2c(c1)CC/C(=C/O)C2=O.[Cu] was tested. Which survivor count [13] did it give?
Its survivor count is 6 of 6.

And the survivor count [1]?
The survivor count was 6 of 6.

For CCC(=O)Oc1ccc(C2N(Cc3ccc(N(C)C)cc3)CCCN2Cc2ccc(N(C)C)cc2)cc1, which survivor count [14] is on record?
Its survivor count is 5 of 6.

With O=C(O)CCNC1=CC(=O)c2ccccc2C1=O as the compound, how does the survivor count [8] read?
Its survivor count is 6 of 6.

What does the source list for COc1ccccc1N/N=c1/c2n(-c3ccc(Cl)cc3)c(=S)n(-c3ccccn3)c1=NCCN=2?
survivor count [12]: 4 of 6; survivor count [6]: 1 of 6

With C=CCN(N=Nc1ccc(Cl)cc1)c1ccc(Cl)cc1 as the compound, how does the T/C [13] read?
The T/C was 128 % of control.

And the T/C [14]?
The T/C was 127 % of control.

How did the survivor count [13] turn out when CCCCCCCCCCCC(=O)OCCN1CCN(CCCN2c3ccccc3Sc3ccc(C(F)(F)F)cc32)CC1 was run?
The survivor count was 5 of 6.

What about the survivor count (dose: 200.0 mg/kg/injection, schedule: Q01DX009 (ip), vehicle: saline with Tween-80) of the same compound?
The survivor count was 5 of 6.

CC(C)CN(CC(C)C)CN(CC(C)C)CC(C)C was tested. Which survivor count [6] did it give?
Its survivor count is 0 of 6.

Which results are given for COC(=O)c1n[nH]c(C(C)C)c1N=NN(C)C?
T/C [15]: 135 % of control; survivor count [15]: 5 of 6; T/C [16]: 134 [5 of 6 alive] and 139 % of control

With CCC1SC(=S)NC1=O (stereo not drawn) as the compound, how does the survivor count [6] read?
Its survivor count is 3 of 5.

For CN(C)C1C(=O)C(C(N)=O)=C(O)C2(O)C(=O)C3=C(O)c4c(O)cccc4C(C)(O)C3C(O)C12.[Cl][Sb]([Cl])[Cl] (stereo not drawn), which survivor count [6] is on record?
Its survivor count is 1 of 6.

Which survivor count [16] does the source give for COc1ccc(CC(C)NCC(O)c2ccc(O)c(NC=O)c2)cc1 (stereo not drawn) here?
Its survivor count is 5 of 6.

What about the survivor count [10] of the same compound?
Its survivor count is 5 of 6.

What about the survivor count (dose: 100.0 mg/kg/injection, schedule: Q01DX009 (ip), vehicle: suspension in saline) of the same compound?
The survivor count was 5 of 6.

What about the survivor count [11] of the same compound?
The survivor count was 5 of 6.

What does the source list for Cc1ccc(/C=C2/N=C([Se])N(C)C2=O)cc1?
survivor count (dose: 60.0 mg/kg/injection, schedule: Q01DX005 (ip), vehicle: saline with Tween-80): 5 of 6; survivor count (dose: 240.0 mg/kg/injection, schedule: Q01DX005 (ip), vehicle: saline with Tween-80): 3 of 6

COC1CC(OC2CCC3(C)C(CCC45CCC(C6=CC(=O)OC6)C(C)(CCC43)C5=O)C2)OC(C)C1O (stereo not drawn) was tested. Which survivor count [9] did it give?
The survivor count was 5 of 5.

And the survivor count [3]?
The survivor count was 5 of 5.

And the survivor count [4]?
The survivor count was 5 of 5.

And the survivor count [5]?
The survivor count was 5 of 5.

How did the T/C (dose: 1.0 mg/kg/injection, schedule: Q01DX001 (ip), vehicle: water) turn out when CCC1=C[C@H]2CN(CCc3c([nH]c4ccccc34)[C@@](OC(C)=O)(c3cc4c(cc3OC)N(C)[C@H]3[C@@](O)(C(=O)NCCSc5ccccc5)[C@H](O)[C@]5(CC)C=CCN6CC[C@]43[C@@H]65)C2)C1 was run?
The T/C was 125 % of control.

And the T/C (dose: 2.0 mg/kg/injection, schedule: Q01DX001 (ip), vehicle: water)?
Its T/C is 128 % of control.

What about the T/C (dose: 4.0 mg/kg/injection, schedule: Q01DX001 (ip), vehicle: water) of the same compound?
Its T/C is 136 and 145 % of control.

And the T/C (dose: 8.0 mg/kg/injection, schedule: Q01DX001 (ip), vehicle: water)?
The T/C was 141 % of control.

And the survivor count (dose: 32.0 mg/kg/injection, schedule: Q01DX001 (ip), vehicle: water)?
The survivor count was 3 of 6.

Cn1cc(N)c2ccccc2c1=O was tested. Which survivor count [12] did it give?
The survivor count was 0 of 6.

What about the survivor count [6] of the same compound?
Its survivor count is 0 of 6.
